From PubChem BioAssay AID344 (DTP/NCI, 2004)
The list shows only some results of the screen, not a fair sample: it gathers tests that were run many times, whatever their T/C, doses with no T/C, and many T/C values between a quarter and a half above the control. Further doses and runs are listed elsewhere. T/C: endpoint of the treated group in % of that of the vehicle group. Some doses have a count of surviving animals in place of a T/C: the source holds a T/C of zero for them, seemingly a mark for toxic or unscored doses. Some survivor counts are full or nearly so, which does not show that the dose was tolerated: survival well below the control is almost never listed, so the zero probably covers shortened survival too. Survivors were counted at the toxicity check, usually on the fifth day, unless a day is given; later deaths do not show. Schedules are NCI's codes, taken here to give the interval after Q, in days (D) or hours (H), and the number of doses after X. For survival time, this PubChem deposit counts one and a half times the control or more as active, and values a quarter to a half above the control carry no call in these data; other NCI protocols may use other cut-offs. Some entries were tested several times; the values are given in rising order. Some schedule codes hold Z or #, which are not explained here. Some T/C values are followed by the survivors on the day toxicity was checked, most often the fifth; without a count, all were alive then.

Test system: mice, LPC-1 plasma cell tumor ip, median survival T/C
Experiment: NCI In Vivo Anticancer Drug Screen. Data for tumor model Lieberman Plasma Cell No. 1 (LPC-1) (intraperitoneal) in unknown mice
Settings: T/C endpoint: median survival time, higher T/C = longer survival
Protocol: The antitumor activity of compounds was measured in mice bearing transplantable tumors. Survival or tumor size were measured and the results are expressed as the measurement made in the treated group (T) divided by the measurement made in the vehicle treated control group (C). The tumor model used in this assay is Lieberman Plasma Cell No. 1 (LPC-1) (intraperitoneal) in unknown mice

[1] = dose: 8.4 mg/kg/injection, schedule: Q01DX028 (sc), vehicle: saline

O=C(O)CCCc1ccc(N(CCCl)CCCl)cc1
T/C (dose: 8.0 mg/kg/injection, schedule: Q01DX007 (sc), vehicle: saline): 128 % of control [9 of 10 alive] | survivor count (dose: 10.0 mg/kg/injection, schedule: Q01DX028 (sc), vehicle: carboxymethylcellulose (CMC)): 5 of 8 | T/C (dose: 20.0 mg/kg/injection, schedule: Q01DX028 (sc), vehicle: carboxymethylcellulose (CMC)): 126 % of control [7 of 10 alive] | T/C (dose: 23.0 mg/kg/injection, schedule: Q01DX028 (sc), vehicle: methylcellulose (MC)): 134 % of control | T/C (dose: 39.0 mg/kg/injection, schedule: Q01DX028 (sc), vehicle: methylcellulose (MC)): 136 % of control | survivor count (dose: 40.0 mg/kg/injection, schedule: Q01DX028 (sc), vehicle: carboxymethylcellulose (CMC)): 2 of 10

CN(Cc1cnc2nc(N)nc(N)c2n1)c1ccc(C(=O)N[C@@H](CCC(=O)O)C(=O)O)cc1
T/C (dose: 0.25 mg/kg/injection, schedule: Q01DX028 (sc), vehicle: other): 125 % of control | T/C (dose: 0.5 mg/kg/injection, schedule: Q01DX028 (sc), vehicle: other): 136 % of control | survivor count (dose: 2.0 mg/kg/injection, schedule: Q01DX028 (sc), vehicle: other): 12 of 12

O=c1[nH]c(=O)n(C2CC(O)C(CO)O2)cc1F (stereo not drawn)
T/C [1]: 111 [7 of 8 alive], 119, 122 [6 of 8 alive], 125 % of control | survivor count [1]: 5 of 8 | T/C (dose: 14.0 mg/kg/injection, schedule: Q01DX028 (sc), vehicle: saline): 111 [7 of 8 alive], 116, 127, 135, 138 % of control | T/C (dose: 23.0 mg/kg/injection, schedule: Q01DX028 (sc), vehicle: saline): 125 [7 of 8 alive], 128, 130, 138 [7 of 8 alive], 155 % of control [7 of 8 alive] | T/C (dose: 39.0 mg/kg/injection, schedule: Q01DX028 (sc), vehicle: saline): 122, 127, 130, 133, 182, 273 % of control | T/C (dose: 65.0 mg/kg/injection, schedule: Q01DX028 (sc), vehicle: saline): 97 [7 of 8 alive], 111, 113, 116, 116 [7 of 8 alive], 136 % of control

O=c1[nH]cc(F)c(=O)[nH]1
T/C (dose: 16.0 mg/kg/injection, schedule: Q01DX003 (sc), vehicle: saline): 125 % of control [9 of 10 alive] | T/C (dose: 16.0 mg/kg/injection, schedule: Q01DX004 (sc), vehicle: saline): 130 % of control | T/C (dose: 24.0 mg/kg/injection, schedule: Q01DX024 (sc), vehicle: saline): 146 % of control | T/C (dose: 24.0 mg/kg/injection, schedule: Q## X008 (sc), vehicle: saline): 143 % of control | T/C (dose: 26.7 mg/kg/injection, schedule: Q01DX003 (sc), vehicle: saline): 137 % of control | T/C (dose: 44.5 mg/kg/injection, schedule: Q01DX001 (sc), vehicle: saline): 130 % of control | T/C (dose: 44.5 mg/kg/injection, schedule: Q01DX002 (sc), vehicle: saline): 132 % of control [9 of 10 alive] | T/C (dose: 48.0 mg/kg/injection, schedule: Q## X008 (sc), vehicle: saline): 146 % of control | T/C (dose: 48.0 mg/kg/injection, schedule: Q## X012 (sc), vehicle: saline): 134 % of control

CCOC(N)=O
T/C (dose: 200.0 mg/kg/injection, schedule: Q01DX028 (sc), vehicle: saline): 139 % of control [8 of 10 alive] | T/C (dose: 256.0 mg/kg/injection, schedule: Q01DX028 (sc), vehicle: other): 129 % of control | survivor count (dose: 800.0 mg/kg/injection, schedule: Q01DX028 (sc), vehicle: saline): 6 of 10

N=[N+]=CC(=O)OCC(N)C(=O)O (stereo not drawn)
survivor count (dose: 5.0 mg/kg/injection, schedule: Q01DX028 (sc), vehicle: water): 0 of 10 | survivor count (dose: 8.4 mg/kg/injection, schedule: Q01DX028 (sc), vehicle: water): 0 of 10

Cn1cnc([N+](=O)[O-])c1Sc1nc(N)nc2nc[nH]c12
T/C (dose: 2.0 mg/kg/injection, schedule: Q01DX028 (sc), vehicle: carboxymethylcellulose (CMC)): 142 % of control [9 of 10 alive] | T/C (dose: 3.0 mg/kg/injection, schedule: Q01DX028 (sc), vehicle: carboxymethylcellulose (CMC)): 142 % of control [8 of 10 alive]

CCN(CC)c1ccc2cc3ccc(=[N+](CC)CC)cc-3oc2c1
survivor count (dose: 16.0 mg/kg/injection, schedule: Q01DX028 (sc), vehicle: methylcellulose (MC)): 10 of 10

CN[C@H]1CCc2cc(OC)c(OC)c(OC)c2-c2ccc(OC)c(=O)cc21
survivor count (dose: 2.5 mg/kg/injection, schedule: Q01DX015 (sc), vehicle: saline): 3 of 10 | survivor count (dose: 5.0 mg/kg/injection, schedule: Q01DX015 (sc), vehicle: saline): 4 of 10 | survivor count (dose: 5.0 mg/kg/injection, schedule: Q01DX028 (sc), vehicle: saline): 7 of 12 | survivor count (dose: 10.0 mg/kg/injection, schedule: Q01DX028 (sc), vehicle: saline): 6 of 12

Cn1cnc([N+](=O)[O-])c1Sc1ncnc2nc[nH]c12
T/C (dose: 6.25 mg/kg/injection, schedule: Q01DX028 (sc), vehicle: carboxymethylcellulose (CMC)): 129 % of control [9 of 10 alive] | T/C (dose: 12.5 mg/kg/injection, schedule: Q01DX028 (sc), vehicle: carboxymethylcellulose (CMC)): 147 % of control | T/C (dose: 25.0 mg/kg/injection, schedule: Q01DX028 (sc), vehicle: carboxymethylcellulose (CMC)): 125 % of control [9 of 10 alive]

CCOC(=O)c1c[nH]c2ccc(N(CCCl)CCCl)cc12
T/C (dose: 14.0 mg/kg/injection, schedule: Q01DX015 (sc), vehicle: carboxymethylcellulose (CMC)): 138 % of control [8 of 10 alive] | survivor count (dose: 23.0 mg/kg/injection, schedule: Q01DX015 (sc), vehicle: carboxymethylcellulose (CMC)): 6 of 10 | survivor count (dose: 39.0 mg/kg/injection, schedule: Q01DX015 (sc), vehicle: carboxymethylcellulose (CMC)): 4 of 10 | survivor count (dose: 65.0 mg/kg/injection, schedule: Q01DX015 (sc), vehicle: carboxymethylcellulose (CMC)): 6 of 10 | survivor count (dose: 180.0 mg/kg/injection, schedule: Q01DX028 (sc), vehicle: carboxymethylcellulose (CMC)): 8 of 8

C[C@]12C=CC(=O)C=C1CC[C@@H]1[C@@H]2C(=O)C[C@@]2(C)[C@H]1CC[C@]2(O)C(=O)CO
survivor count (dose: 8.0 mg/kg/injection, schedule: Q01DX028 (sc), vehicle: water): 9 of 12 | survivor count (dose: 64.0 mg/kg/injection, schedule: Q01DX028 (sc), vehicle: water): 11 of 12 | survivor count (dose: 100.0 mg/kg/injection, schedule: Q01DX028 (sc), vehicle: water): 5 of 9

CCOC(=O)C(Cc1ccc(N(CCCl)CCCl)cc1)NC=O (stereo not drawn)
T/C (dose: 37.5 mg/kg/injection, schedule: Q01DX028 (sc), vehicle: carboxymethylcellulose (CMC)): 130 % of control
